In paper PMC8693265, “Investigation of PAS and CNBH domain interactions in hERG channels and effects of long-QT syndrome-causing mutations with surface plasmon resonance” (The Journal of Biological Chemistry, 2021):
Results are given in words; binding and its absence hold for the method and conditions named.

The chains behind the UniProt entries cited, without tags or fusion partners. Residues count along the entry.
hERG PAS domain (residues 2-134) (Q12809, residues 2-134): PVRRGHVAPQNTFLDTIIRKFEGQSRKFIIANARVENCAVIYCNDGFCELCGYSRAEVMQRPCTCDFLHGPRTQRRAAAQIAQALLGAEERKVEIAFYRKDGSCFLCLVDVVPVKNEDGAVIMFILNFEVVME
hERG CNBH domain (residues 734-867) (Q12809, residues 734-867): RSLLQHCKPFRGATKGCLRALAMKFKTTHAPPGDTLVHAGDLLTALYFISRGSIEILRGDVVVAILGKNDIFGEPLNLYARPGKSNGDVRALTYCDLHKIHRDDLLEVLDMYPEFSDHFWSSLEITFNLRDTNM

Biological target: hERG CNBH domain (residues 734-867) (human) (UniProt Q12809)
Test: SPR; free PAS domain at 3 uM over CNBH or PAS domain immobilised on a CM5 chip; 600 mM KCl, 1 mM TCEP, 10% glycerol, 0.05% Tween 20, 30 mM HEPES pH 7.5 (series 150, 300, 600 mM KCl); both purified

hERG PAS domain (residues 2-134) (from UniProt Q12809 2-134) (domain or fragment)
binding: no binding (condition: 600 mM KCl (PAS at 3 μM))
